The target in this assay is OLIG2 (not stated (immunoprecipitated from rat iOLs)) (UniProt G3V612). Nature of the assay: co-IP; immunoprecipitation from rat iOLs (for OLIG2 and BRG1: Setdb1 knockdown rat iOLs); primary antibody 8 hr at 4 °C, protein A-Sepharose, western blotting. In general terms: Immunoblotting shows a protein as a band on a membrane.

Sequences of proteins named here, by UniProt entry; tags and fusion partners are left off. A change or cut given only in a name is not applied to a line headed by its entry.
UniProt G3V612: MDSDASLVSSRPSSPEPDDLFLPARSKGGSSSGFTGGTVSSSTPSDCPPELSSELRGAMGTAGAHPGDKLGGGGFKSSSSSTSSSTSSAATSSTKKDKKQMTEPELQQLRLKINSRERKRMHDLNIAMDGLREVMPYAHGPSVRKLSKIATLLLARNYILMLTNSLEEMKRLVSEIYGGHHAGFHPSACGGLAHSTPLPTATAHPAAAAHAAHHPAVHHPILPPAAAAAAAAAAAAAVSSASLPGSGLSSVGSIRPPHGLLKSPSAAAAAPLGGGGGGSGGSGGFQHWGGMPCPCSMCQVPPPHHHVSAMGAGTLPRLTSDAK
UniProt Q8K1P7: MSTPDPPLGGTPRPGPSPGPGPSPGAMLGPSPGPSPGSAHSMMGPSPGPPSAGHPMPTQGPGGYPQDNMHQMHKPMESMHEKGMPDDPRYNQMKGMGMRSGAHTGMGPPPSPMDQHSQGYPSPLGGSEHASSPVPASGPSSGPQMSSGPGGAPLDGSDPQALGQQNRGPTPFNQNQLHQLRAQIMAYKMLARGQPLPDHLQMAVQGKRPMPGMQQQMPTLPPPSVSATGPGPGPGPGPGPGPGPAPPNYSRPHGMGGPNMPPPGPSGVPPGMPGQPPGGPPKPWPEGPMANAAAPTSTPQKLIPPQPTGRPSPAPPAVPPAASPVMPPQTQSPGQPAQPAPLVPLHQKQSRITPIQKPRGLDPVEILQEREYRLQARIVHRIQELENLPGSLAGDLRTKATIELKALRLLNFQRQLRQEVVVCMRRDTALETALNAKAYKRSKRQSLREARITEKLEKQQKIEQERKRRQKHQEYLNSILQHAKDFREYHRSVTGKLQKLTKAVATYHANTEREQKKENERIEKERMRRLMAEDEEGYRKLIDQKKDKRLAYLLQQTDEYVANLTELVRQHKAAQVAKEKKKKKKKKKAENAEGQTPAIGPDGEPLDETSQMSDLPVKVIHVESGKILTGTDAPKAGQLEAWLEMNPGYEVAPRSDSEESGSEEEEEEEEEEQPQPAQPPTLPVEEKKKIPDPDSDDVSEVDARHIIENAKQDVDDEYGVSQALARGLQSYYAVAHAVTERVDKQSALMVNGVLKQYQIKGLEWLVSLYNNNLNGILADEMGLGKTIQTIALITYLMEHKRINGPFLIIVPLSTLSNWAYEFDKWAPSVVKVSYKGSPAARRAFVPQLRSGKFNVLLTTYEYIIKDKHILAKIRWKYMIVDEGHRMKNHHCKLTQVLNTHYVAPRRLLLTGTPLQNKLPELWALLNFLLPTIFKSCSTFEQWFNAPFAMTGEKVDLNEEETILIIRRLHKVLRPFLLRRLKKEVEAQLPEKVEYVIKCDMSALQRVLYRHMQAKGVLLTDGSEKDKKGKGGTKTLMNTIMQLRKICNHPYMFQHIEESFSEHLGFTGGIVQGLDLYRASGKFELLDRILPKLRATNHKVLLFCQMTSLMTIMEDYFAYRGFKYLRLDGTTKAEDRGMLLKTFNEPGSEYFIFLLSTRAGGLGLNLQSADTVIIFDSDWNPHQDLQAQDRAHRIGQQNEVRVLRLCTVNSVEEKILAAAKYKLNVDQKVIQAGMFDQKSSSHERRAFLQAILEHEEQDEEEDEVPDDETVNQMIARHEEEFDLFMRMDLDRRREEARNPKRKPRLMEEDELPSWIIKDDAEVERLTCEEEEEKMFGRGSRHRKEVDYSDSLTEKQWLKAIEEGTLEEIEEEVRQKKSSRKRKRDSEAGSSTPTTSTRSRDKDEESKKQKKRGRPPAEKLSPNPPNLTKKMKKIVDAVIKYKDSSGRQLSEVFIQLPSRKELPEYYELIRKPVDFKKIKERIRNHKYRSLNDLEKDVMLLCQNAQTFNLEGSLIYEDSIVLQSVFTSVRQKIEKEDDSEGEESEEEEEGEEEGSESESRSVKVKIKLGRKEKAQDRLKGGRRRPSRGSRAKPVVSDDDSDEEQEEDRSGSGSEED

These are yes or no findings as the source states them, for the method shown. Binding seen in cells or lysates may run through a third protein. Binding calls can cover weak binding; strength is not graded here.

Take BRG1 (from UniProt Q8K1P7 1-1613): the binding result is “binds”.

The values above are taken from paper PMC8931116.
